# Experimental data as given in PubChem BioAssay AID248 (DTP/NCI, 2004).
# The list shows only some results of the screen, not a fair sample: it gathers tests that were run many times, whatever their T/C, doses with no T/C, and many T/C values between a quarter and a half above the control. Further doses and runs are listed elsewhere. T/C is the treated group as % of the vehicle group. Some entries give survivors of the animals treated and no T/C: the source files T/C as zero there, which appears to mark a toxic dose or a test without result, not a measured value. Some doses without a T/C left all or most animals alive at the check, yet need not have been tolerated: survival well below the control is almost never listed, so the zero probably covers shortened survival too. Survivors were counted at the toxicity check, usually on the fifth day, unless a day is given; later deaths do not show. Schedules are NCI's codes, read here as Q, the interval in days (D) or hours (H), X, the number of doses. Some doses were run more than once; their values stand side by side, smallest first. Some schedules carry Z or #; the key to these is not given. For survival time, the PubChem record calls one and a half times the control and up active, and a quarter to a half above the control has no call in these data; cut-offs in other NCI protocols can differ. Some T/C values carry the count of animals alive at the toxicity check (mostly the fifth day); where none is given, no animal had died by that day.
# Tested on: L1210 leukemia ip in BDF1 mice, survival T/C
# Assay: NCI In Vivo Anticancer Drug Screen. Data for tumor model L1210 Leukemia (intraperitoneal) in B6D2F1 (BDF1) mice
# Details: higher T/C = longer survival
# [1] = T/C endpoint: mean survival time, dose: 400.0 mg/kg/injection, schedule: Q01DX001 (ip), vehicle: saline
# [2] = T/C endpoint: mean survival time, dose: 400.0 mg/kg/injection, schedule: Q01DX009 (ip), vehicle: saline with Tween-80
# [3] = T/C endpoint: mean survival time, dose: 400.0 mg/kg/injection, schedule: Q01DX001 (ip), vehicle: other
# [4] = T/C endpoint: mean survival time, dose: 400.0 mg/kg/injection, schedule: Q01DX009 (ip), vehicle: Klucel (hydroxypropylcellulose) (HPC)
# [5] = T/C endpoint: mean survival time, dose: 200.0 mg/kg/injection, schedule: Q04DX003 (ip), vehicle: Klucel (hydroxypropylcellulose) (HPC)
# [6] = T/C endpoint: mean survival time, dose: 400.0 mg/kg/injection, schedule: Q04DX003 (ip), vehicle: Klucel (hydroxypropylcellulose) (HPC)
# [7] = T/C endpoint: mean survival time, dose: 400.0 mg/kg/injection, schedule: Q04DX003 (ip), vehicle: saline
# [8] = T/C endpoint: mean survival time, dose: 400.0 mg/kg/injection, schedule: Q01DX001 (ip), vehicle: carboxymethylcellulose (CMC)
# [9] = T/C endpoint: mean survival time, dose: 400.0 mg/kg/injection, schedule: Q04DX003 (ip), vehicle: saline with Tween-80
# [10] = T/C endpoint: mean survival time, dose: 400.0 mg/kg/injection, schedule: Q01DX009 (ip), vehicle: saline
# [11] = T/C endpoint: mean survival time, dose: 200.0 mg/kg/injection, schedule: Q01DX001 (ip), vehicle: saline
# [12] = T/C endpoint: mean survival time, dose: 50.0 mg/kg/injection, schedule: Q04DX002 (ip), vehicle: saline with Tween-80
# [13] = T/C endpoint: mean survival time, dose: 200.0 mg/kg/injection, schedule: Q01DX009 (ip), vehicle: saline
# [14] = T/C endpoint: mean survival time, dose: 400.0 mg/kg/injection, schedule: Q04DX002 (ip), vehicle: Klucel (hydroxypropylcellulose) (HPC)
structure (smiles),measurement,setting,value
Cc1ccc(NC(=O)N(CCBr)N=O)cc1,T/C,"T/C endpoint: mean survival time, dose: 177.0 mg/kg/injection, schedule: Q01DX001 (ip), vehicle: carboxymethylcellulose (CMC)",140 % of control
same,T/C,"T/C endpoint: mean survival time, dose: 200.0 mg/kg/injection, schedule: Q01DX001 (ip), vehicle: carboxymethylcellulose (CMC)",147 % of control
same,survivor count,"T/C endpoint: mean survival time, dose: 200.0 mg/kg/injection, schedule: Q01DX015 (ip), vehicle: carboxymethylcellulose (CMC)",5 of 6
same,survivor count,"T/C endpoint: mean survival time, dose: 600.0 mg/kg/injection, schedule: Q01DX001 (ip), vehicle: carboxymethylcellulose (CMC)",1 of 4
COc1cc(/C=N\NC(=O)CNC(=O)Nc2cccc(Cl)c2)ccc1O,survivor count,"T/C endpoint: mean survival time, dose: 50.0 mg/kg/injection, schedule: Q01DX009 (ip), vehicle: saline with Tween-80",3 of 3
O=C(CC(=O)c1ccccc1)Nc1ccccn1,survivor count,[1],1 of 6
CCn1c(C)[n+](CC)c2cc(Cl)c([N+](=O)[O-])cc21,survivor count,"T/C endpoint: mean survival time, dose: 100.0 mg/kg/injection, schedule: Q01DX009 (ip), vehicle: saline with Tween-80",0 of 6
same,survivor count,"T/C endpoint: mean survival time, dose: 200.0 mg/kg/injection, schedule: Q01DX009 (ip), vehicle: saline with Tween-80",0 of 6
same,survivor count,[2],0 of 6
ICc1cccc(CI)c1,survivor count,"T/C endpoint: mean survival time, dose: 25.0 mg/kg/injection, schedule: Q01DX009 (ip), vehicle: carboxymethylcellulose (CMC)",3 of 6
same,survivor count,"T/C endpoint: mean survival time, dose: 50.0 mg/kg/injection, schedule: Q01DX001 (ip), vehicle: other",0 of 6
same,survivor count,"T/C endpoint: mean survival time, dose: 100.0 mg/kg/injection, schedule: Q01DX001 (ip), vehicle: other",2 of 6
same,survivor count,"T/C endpoint: mean survival time, dose: 200.0 mg/kg/injection, schedule: Q01DX001 (ip), vehicle: other",1 of 6
same,survivor count,[3],2 of 6
O=C1c2cccc3cccc(c23)C(=O)N1CCc1ccccn1,survivor count,[4],1 of 6
NCCCC(=O)NCCCCCCCCCCNC(=O)CCCN,survivor count,"T/C endpoint: mean survival time, dose: 100.0 mg/kg/injection, schedule: Q01DX012 (ip), vehicle: saline",6 of 6
O=C1C(Cl)=C(Br)C(=O)C1(Br)Br,survivor count,"T/C endpoint: mean survival time, dose: 100.0 mg/kg/injection, schedule: Q04DX003 (ip), vehicle: Klucel (hydroxypropylcellulose) (HPC)",6 of 6
same,survivor count,[5],0 of 6
same,survivor count,[6],0 of 6
Cc1cc(Cl)c2ccccc2n1,survivor count,"T/C endpoint: mean survival time, dose: 150.0 mg/kg/injection, schedule: Q01DX001 (ip), vehicle: other",3 of 6
same,survivor count,"T/C endpoint: mean survival time, dose: 150.0 mg/kg/injection, schedule: Q04DX003 (ip), vehicle: saline",2 of 6
same,survivor count,"T/C endpoint: mean survival time, dose: 300.0 mg/kg/injection, schedule: Q01DX001 (ip), vehicle: other",0 of 6
C=COCCN(C)C,survivor count,[7],0 of 6
Cc1nc(N)nc(N)c1-c1ccc([N+](=O)[O-])cc1,survivor count,[8],1 of 4
COC(=O)/C(C#N)=C\c1ccccc1,survivor count,[9],0 of 6
CCC(=C\c1sc2ccc3ccccc3c2[n+]1CC)/C=C1/Sc2ccc3ccccc3c2N1CC,survivor count,"T/C endpoint: mean survival time, dose: 9.5 mg/kg/injection, schedule: Q01DX001 (ip), vehicle: other",5 of 6
same,survivor count,"T/C endpoint: mean survival time, dose: 19.0 mg/kg/injection, schedule: Q01DX001 (ip), vehicle: other",6 of 6
same,survivor count,"T/C endpoint: mean survival time, dose: 38.0 mg/kg/injection, schedule: Q01DX001 (ip), vehicle: other",0 of 6
CC(C)O/N=C(/N)N=C(N)N,survivor count,[3],0 of 6
C/C(CCc1ccccc1)=N/N(C)C,survivor count,[10],2 of 6
Cc1cccc(/C2=C/CCCCCC2)c1,survivor count,"T/C endpoint: mean survival time, dose: 340.0 mg/kg/injection, schedule: Q01DX009 (ip), vehicle: acetone",0 of 6
CCC(C)N (configuration not stated),survivor count,[7],3 of 6
CCCCCCCC[n+]1ccc(C#N)cc1,survivor count,"T/C endpoint: mean survival time, dose: 150.0 mg/kg/injection, schedule: Q01DX001 (ip), vehicle: saline",0 of 6
same,survivor count,"T/C endpoint: mean survival time, dose: 300.0 mg/kg/injection, schedule: Q01DX001 (ip), vehicle: saline",0 of 6
O=C(O)c1cc2c(Br)cccc2c2cc(C(F)(F)F)ccc12,survivor count,[9],0 of 6
O=NN1CCCC1C(=O)O (configuration not stated),survivor count,[1],1 of 4 and 2 of 4
Cc1c(C(=O)NN)sc2ccccc12,survivor count,"T/C endpoint: mean survival time, dose: 100.0 mg/kg/injection, schedule: Q01DX001 (ip), vehicle: saline",2 of 4
same,survivor count,[11],2 of 4
same,survivor count,[1],0 of 4
CCCCCCCCC(C(=O)c1ccccc1)C(O)(C(F)(F)F)C(F)(F)F (configuration not stated),survivor count,[2],3 of 6
O=C(CCCN1CCC(O)(c2ccc(C(F)(F)F)cc2)CC1)c1ccc(N2CCC(O)CC2)cc1,survivor count,[12],3 of 3
NS(=O)(=O)c1c([N+](=O)[O-])ncn1C1OC(COC(=O)c2ccccc2)C(OC(=O)c2ccccc2)C1OC(=O)c1ccccc1 (configuration not stated),T/C,"T/C endpoint: mean survival time, dose: 50.0 mg/kg/injection, schedule: Q01DX009 (ip), vehicle: saline",134 % of control [5 of 6 alive]
same,survivor count,"T/C endpoint: mean survival time, dose: 100.0 mg/kg/injection, schedule: Q01DX009 (ip), vehicle: saline",3 of 6
same,survivor count,[13],0 of 6
O=C(O)/C=C/C(=O)Nc1ccc(Cl)cc1C(=O)c1ccccc1,survivor count,[4],6 of 6
Cc1cc(C)c(C(=O)c2ccccc2C(=O)OC(=O)c2ccccc2C(=O)c2c(C)cc(C)cc2C)c(C)c1,T/C,[12],132 % of control
same,survivor count,"T/C endpoint: mean survival time, dose: 200.0 mg/kg/injection, schedule: Q04DX002 (ip), vehicle: saline with Tween-80",3 of 3
CC1CC(C#N)Nc2ccccc2N1 (configuration not stated),T/C,"T/C endpoint: mean survival time, dose: 200.0 mg/kg/injection, schedule: Q01DX009 (ip), vehicle: Klucel (hydroxypropylcellulose) (HPC)",125 % of control
same,survivor count,"T/C endpoint: mean survival time, dose: 400.0 mg/kg/injection, schedule: Q01DX001 (ip), vehicle: Klucel (hydroxypropylcellulose) (HPC)",1 of 6
same,survivor count,[4],0 of 6
same,survivor count,[6],1 of 6
O=C(CSc1ccccc1)NCc1cnccn1,survivor count,[10],3 of 6
CCCCCCCCCCN1CCN2C(=O)N(CC)CCC2C1 (configuration not stated),survivor count,"T/C endpoint: mean survival time, dose: 200.0 mg/kg/injection, schedule: Q01DX001 (ip), vehicle: saline with Tween-80",4 of 6
same,survivor count,"T/C endpoint: mean survival time, dose: 400.0 mg/kg/injection, schedule: Q01DX001 (ip), vehicle: saline with Tween-80",0 of 6
CC(C)=CCC/C(C)=C/CN,survivor count,[13],0 of 6
same,survivor count,[10],0 of 6
COc1ccc2c3c1OC1C4(CCC5C(C2)N(CC2CC2)CCC351)OCCO4 (configuration not stated),survivor count,"T/C endpoint: mean survival time, dose: 150.0 mg/kg/injection, schedule: Q01DX009 (ip), vehicle: Klucel (hydroxypropylcellulose) (HPC)",5 of 6
same,survivor count,[5],6 of 6
same,survivor count,"T/C endpoint: mean survival time, dose: 225.0 mg/kg/injection, schedule: Q01DX009 (ip), vehicle: Klucel (hydroxypropylcellulose) (HPC)",2 of 6
same,survivor count,"T/C endpoint: mean survival time, dose: 335.0 mg/kg/injection, schedule: Q01DX009 (ip), vehicle: Klucel (hydroxypropylcellulose) (HPC)",0 of 6
same,survivor count,[6],6 of 6
Cc1no[n+]([O-])c1C(=O)O,survivor count,[14],1 of 3
Cc1ccccc1NC(=O)C1CCCC1=O (configuration not stated),survivor count,[11],4 of 4
CC(=O)N\C(N)=N/N=C\C(C)=N/N=C(\N)NC(C)=O,survivor count,"T/C endpoint: mean survival time, dose: 480.0 mg/kg/injection, schedule: Q01DX Z (ip), vehicle: carboxymethylcellulose (CMC)",3 of 6
ClCCN(CCCl)c1ccc(CCCCN2CCOCC2)cc1,survivor count,"T/C endpoint: median survival time, dose: 100.0 mg/kg/injection, schedule: Q01DX009 (ip), vehicle: Klucel (hydroxypropylcellulose) (HPC)",0 of 6
same,survivor count,"T/C endpoint: median survival time, dose: 200.0 mg/kg/injection, schedule: Q01DX009 (ip), vehicle: Klucel (hydroxypropylcellulose) (HPC)",0 of 6
same,survivor count,"T/C endpoint: median survival time, dose: 400.0 mg/kg/injection, schedule: Q01DX009 (ip), vehicle: Klucel (hydroxypropylcellulose) (HPC)",0 of 6
O=C(O)c1cc([N+](=O)[O-])ccc1O,survivor count,"T/C endpoint: mean survival time, dose: 50.0 mg/kg/injection, schedule: Q01DX001 (ip), vehicle: carboxymethylcellulose (CMC)",4 of 4
same,survivor count,[8],2 of 4
CCS(=O)(=O)/C=C/c1ccc2ccccc2n1,survivor count,[14],0 of 3
Cc1c(Cl)cccc1NC(=O)c1c(Cl)c(Cl)c(Cl)c(Cl)c1C(=O)O,survivor count,[4],0 of 6
CCOC(=O)NNC(=O)Nc1ccc(Cl)c([N+](=O)[O-])c1,survivor count,[10],3 of 6
